# Data from US20100279402A1.
# No constants are given. Whether binding was seen depends on the method and setting. For some of these results: In cells and extracts the contact can be indirect. Some binding calls cover weakened binding; strength is not graded here. Where a sequence is shown, tags or fusion partners need not be part of it.
# T1: Methanosarcina mazei (Mm) proteasome subunit β with C-terminal 6×histidine (Methanosarcina mazei) (UniProt Q8PZ04)
# T1 sequence: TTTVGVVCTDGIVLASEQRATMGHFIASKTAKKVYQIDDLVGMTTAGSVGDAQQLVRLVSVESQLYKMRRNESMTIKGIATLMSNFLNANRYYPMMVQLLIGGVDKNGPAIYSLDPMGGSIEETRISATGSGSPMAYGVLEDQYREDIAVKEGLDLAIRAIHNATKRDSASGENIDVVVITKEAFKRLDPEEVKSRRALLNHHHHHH
# Tests used:
# [1] = molecular target: T1, Methanosarcina mazei (Mm) proteasome subunit β with C-terminal 6×histidine (Methanosarcina mazei); test: glycerol gradient ultracentrifugation, co-fractionation in fractions 20-25/37
# [2] = molecular target: T1, Methanosarcina mazei (Mm) proteasome subunit β with C-terminal 6×histidine (Methanosarcina mazei); test: Ni-NTA pull down of His-tagged β from HEK293 lysate
binder,measurement,setting,value
Methanosarcina mazei (Mm) proteasome Δ(2-13)α subunit (enzyme) MTVFSPDGRLFQVEYAREAVKRGTTAVGIKAADGVVLLVDKRITSRLVEAESIEKIFQIDDHIGAATSGLVADARSLVDRARVEAQVNRVSYDELIGVEVISKKICDHKQTYTQYGGVRPYGTALLIAGVDDNKPRLFETDPSGALLEYKATAIGAGRNAVVEVFEADYREDMNIDAAILLGMDALYKAAEGKFDAGTLEVGVVSLEDKKFRKLGPEEVENYVHQILEKHKGNENKE,binding,[1],binds
same,binding,[2],binds
Methanosarcina mazei (Mm) proteasome subunit α (enzyme) MQMAPQMGYDRAITVFSPDGRLFQVEYAREAVKRGTTAVGIKAADGVVLLVDKRITSRLVEAESIEKIFQIDDHIGAATSGLVADARSLVDRARVEAQVNRVSYDELIGVEVISKKICDHKQTYTQYGGVRPYGTALLIAGVDDNKPRLFETDPSGALLEYKATAIGAGRNAVVEVFEADYREDMNIDAAILLGMDALYKAAEGKFDAGTLEVGVVSLEDKKFRKLGPEEVENYVHQILEKHKGNENKE,binding,[1],binds
same,binding,[2],binds
